Results on 9 molecules are retold here after the supplement of paper PMC4604168 (melanoma cell lines).

The other results are listed elsewhere or left out. Many values rest on one well or one pass, so single values are uncertain.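 Cells were imaged in 1,536-well plates, and nuclei stained with an antibody against cleaved PARP were counted against all DNA-stained nuclei to give the apoptosis fraction. Screening doses were chosen to leave most cells alive, and resting and induced cleaved-PARP levels differ strongly between cell lines.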

The assay relates to COLO800. The assay can be described thus: cleaved PARP positive nuclei fraction relative to DMSO control; melanoma cells; higher = more apoptosis. To be noted: library dose: low library concentration; 72 h.
In the case of `COc1ccc2c(c1)CCC1C2CCC2(C)C(NCCCCCCN3C(=O)C=CC3=O)CCC12` (centres undefined) + CC(C)CCN1c2nc(Nc3cc(F)c(O)c(F)c3)ncc2N(C)C(=O)C1C [BID1870] (first compound 0.4 µM, partner dose 0.2 µM), the “cleaved PARP positive nuclei fraction” value stood at 155%.

Turning to `CCc1ccc(CCOc2ccc(CC3SC(=O)NC3=O)cc2)nc1` (centres undefined) [pioglitazone] + Oc1cc(-c2nc(-c3ccccc3)[nH]c2-c2ccncc2)ccc1Cl [L779450] (first compound 2 µM, partner dose 0.2 µM), the “cleaved PARP positive nuclei fraction” value was 152%.

`CCc1ccc(CCOc2ccc(CC3SC(=O)NC3=O)cc2)nc1` (centres undefined) [pioglitazone] + CC(C)CCN1c2nc(Nc3cc(F)c(O)c(F)c3)ncc2N(C)C(=O)C1C [BID1870] (first compound 2 µM, partner dose 0.2 µM): the “cleaved PARP positive nuclei fraction” value was found to be 106%.

Regarding `CN(NC(=O)CC(=O)NN(C)C(=S)c1ccccc1)C(=S)c1ccccc1` + O=c1cc(-c2cccc3c2Sc2ccccc2S3)oc(N2CCOCC2)c1 [KU55933] (first compound 0.006 µM, partner dose 1 µM), the “cleaved PARP positive nuclei fraction” value came to 290%.

Turning to `O=C(O)c1ccc(-c2c[nH]c3ncc(-c4ccccc4)cc23)cc1C1CCCC1` + Oc1nc(-c2ccc(C(F)(F)F)cc2)nc2c1CSCC2 [XAV939] (first compound 0.16 µM, partner dose 2 µM), the “cleaved PARP positive nuclei fraction” value came out at 149%.

With `COc1ccc(COc2ccc(Cc3cnc(N)nc3N)cc2OC)cc1` + COc1cc(N2CCC(N3CCN(C)CC3)CC2)ccc1Nc1ncc(Cl)c(Nc2ccccc2S(=O)(=O)C(C)C)n1 [NVP-TAE684] (first compound 1 µM, partner dose 0.08 µM), the “cleaved PARP positive nuclei fraction” value was 98.6%.

Turning to `COc1ccc2c(c1)CCC1C2CCC2(C)C(NCCCCCCN3C(=O)C=CC3=O)CCC12` (centres undefined) + c1cc(-c2cnn3cc(-c4ccc(OCCN5CCCCC5)cc4)cnc23)ccn1 [Dorsomorphin] (first compound 0.4 µM, partner dose 0.4 µM), the “cleaved PARP positive nuclei fraction” value came to 223%.

With `NCC(=O)Nc1ccc(-n2nc(C(F)(F)F)cc2-c2ccc3c(ccc4ccccc43)c2)cc1` + COc1ccc(COc2ccc(Cc3cnc(N)nc3N)cc2OC)cc1 [GW2580] (first compound 1 µM, partner dose 1 µM), the “cleaved PARP positive nuclei fraction” value was 62.6%.

Turning to `COc1cc2ncnc(Nc3ccc(Oc4ccccc4)cc3)c2cc1OC` + COc1cc(N2CCC(N3CCN(C)CC3)CC2)ccc1Nc1ncc(Cl)c(Nc2ccccc2S(=O)(=O)C(C)C)n1 [NVP-TAE684] (first compound 2 µM, partner dose 0.08 µM), the “cleaved PARP positive nuclei fraction” value stood at 43.1%.
